These are yes or no findings as the source states them, for the method shown. Binding can be weak; no strength is given. Sequences can lack the tags named with a protein.
Target: T1, Prp2p, LexA-bait fusion (budding yeast) (UniProt P20095)
T1 sequence: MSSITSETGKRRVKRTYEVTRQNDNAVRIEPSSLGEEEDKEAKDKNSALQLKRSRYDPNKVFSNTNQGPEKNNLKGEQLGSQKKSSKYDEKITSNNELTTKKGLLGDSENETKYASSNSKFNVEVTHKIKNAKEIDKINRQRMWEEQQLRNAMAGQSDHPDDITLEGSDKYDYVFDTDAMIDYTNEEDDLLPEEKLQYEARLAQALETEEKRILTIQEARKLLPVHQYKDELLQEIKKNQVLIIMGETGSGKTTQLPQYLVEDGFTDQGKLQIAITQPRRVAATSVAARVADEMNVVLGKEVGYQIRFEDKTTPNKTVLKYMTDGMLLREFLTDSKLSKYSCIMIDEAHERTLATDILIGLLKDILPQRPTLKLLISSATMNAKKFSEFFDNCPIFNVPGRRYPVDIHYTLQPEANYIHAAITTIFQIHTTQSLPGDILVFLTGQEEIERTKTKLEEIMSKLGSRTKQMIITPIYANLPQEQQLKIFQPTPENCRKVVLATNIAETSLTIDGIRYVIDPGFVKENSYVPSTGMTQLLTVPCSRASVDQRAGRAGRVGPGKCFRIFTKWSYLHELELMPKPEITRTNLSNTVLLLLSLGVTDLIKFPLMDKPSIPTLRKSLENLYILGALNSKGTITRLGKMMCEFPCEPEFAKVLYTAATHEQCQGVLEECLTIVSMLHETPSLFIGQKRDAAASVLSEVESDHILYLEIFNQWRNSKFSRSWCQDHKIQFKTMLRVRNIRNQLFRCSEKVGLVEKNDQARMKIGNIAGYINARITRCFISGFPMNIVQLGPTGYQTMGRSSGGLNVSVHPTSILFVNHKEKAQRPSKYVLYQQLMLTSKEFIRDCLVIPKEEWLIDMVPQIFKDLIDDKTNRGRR
Assay: two-hybrid; screen of mutated H2-Sec63-2 Gal4AD-preys against LexA-bait Prp2p or Prp16p in L40ΔG yeast; HIS3 reporter, -LWH medium with different concentrations of 3-AT, 30 or 14°C; colony size compared with WT; prey plasmids re-transformed to confirm

Question: How did the binding turn out when “Brr2 H2-Sec63-2p L2120V, Gal4AD-prey fusion (budding yeast) (domain or fragment)” was run?
Answer: binds
